test: Charpy notched impact resistance of PEEK with additive (ISO 179/1eA); conditions: PEEK (Vestakeep 2000G) with 0.4% by weight additive, T=23° C.
Description: Determination of Charpy impact properties of PEEK with and without additives based on the compounds of the invention, including comparison with Nylostab S-EED.
Charpy notched impact resistance is the impact energy absorbed when a notched test specimen fractures, divided by the initial cross-sectional area of the test specimen at the notch side. Procedure as in DIN EN ISO 179-1.
The test specimens of the PEEK polymer were prepared from the corresponding pellets by using a heated press to apply a pressure of 50 bar at a temperature of 390° C. The pellets here were applied uniformly to the preheated lower plate within a metal frame of thickness 4 mm (internal dimensions 200×200 mm), and then the polymer was exposed in the melt to the abovementioned pressure for 10 min. After slow depressurization and cooling, the sheet, which was visually homogeneous, was cut to give individual smaller rectangular specimen sections of thickness 4 mm, length 80 mm, and width 10 mm. In order to minimize variance, 10 of these rectangular specimen sections were used for each measurement.
Specimens of this type were prepared a) without further additive, b) with 0.4% by weight of Nylostab S-EED, and c) with 0.4% by weight of an additive of the invention.
The notched impact resistance tests, which allow conclusions to be drawn concerning the behavior of the plastics specimen on exposure to short-term mechanical impact stress, used a 3/76-50 pendulum impact tester from Feinmechanik Kögel, Leipzig (FIG. 1).
The conditions for the 16-hour conditioning of the specimens and of the measurements were: 23° C. and 50% rel. humidity.
Once the pendulum impact tester had been switched on, the respective current measurement parameters were input, alongside the batch numbers. […] The notched impact energy W in kilojoules/m^2 is thus determined for the PEEK polymer at 23° C. in accordance with the following equation: […]
The predried PEEK powder was charged by way of a hopper preheated to T=180° C. […] The quantities were judged to give a final total concentration of 0.4% by weight of additive. […]

SMILES	Notched impact resistance [kJ/m^2]
CC1(C)CC(NC(=O)c2ccc(C(=O)NC3CC(C)(C)NC(C)(C)C3)o2)CC(C)(C)N1 [Example 2, N,N′-bis(2,2,6,6-tetramethyl-4-piperidinyl)-2,5-furandicarboxamide]	9.0
CC1(C)CC(OC(=O)c2ccc(C(=O)OC3CC(C)(C)NC(C)(C)C3)o2)CC(C)(C)N1 [Example 7, N,N′-bis(2,2,6,6-tetramethyl-4-piperidinyl) 2,5-furandicarboxylate]	8.8
CC1(C)CC(NC(=O)c2cccc(C(=O)NC3CC(C)(C)NC(C)(C)C3)c2)CC(C)(C)N1 [Nylostab S-EED, N,N′-bis(2,2,6,6-tetramethyl-4-piperidinyl)-1,3-benzenedicarboxamide, reference compound]	7.8
